Assay results: PMC10163288
The list shows a part of the results.

B1: il2ra_site2_3nfp_normal_mot_HHH_b1_03236_af2_000000201_0001_37_52_H_._HHH_b2_04798_af2_0001_0000100002_0000001_1 (protein)
chain: SSSSSEEVEELLEELKRAIEEGDEELARKLIRKLVELAFENDDHELFAIVNELAELFYRRFSSSS
B2: il2ra_site1_3nfp_sap_14_mot_HHH_b2_03420_af2_000000062_0001_42_56_H_._437ce1e4c44253f5d945988760af7e00_0001_af2_0001_0000500029_0000001_1_0001 (protein)
chain: SDEYLERFIEDALRRNANVDHVEVEVRDHHIHVTVEGTDEAAEEAEEIAKRFAELSNVPLTFTTL
B3: il2ra_site1_2b5i_normal_mot_HHH_b2_04910_000000118_0001_1_19_H_._HHH_b1_07584_af2_0001_0000100006_0000001_0_af2pred_dldesign_0_af2pred (protein)
chain: SSSSSTPAELFRKKFTEANKLKQAGKEEEAKKVLEELLEELKKAGKAYLVKIVEIALSELSSSSS
B4: il2ra_site1_3nfp_sap_17_mot_HHH_b1_03125_af2_000000134_0001_40_57_H_._efb1e6a814c01858843eeca3a22dd67d_0001_af2_0001_0000200008_0000001_0_0001_af2pred_0001_af2p … (protein)
chain: TVLEFLARAVANAPDPEKAARHVIRAFRRSAPDPEVVEEFVRKIIELLEELGNPEAAKILEELLK
B5: il2ra_site1_2b5i_normal_mot_f5ff40796168375b462bec8614a1db4a_0001_1_000000138_0001_53_65_H_._HHH_b2_02707_0001_0000100003_0000001_0_af2pred_dldesign_0_af2pred (protein)
chain: SSSSSALELVQELLEEAKRLKKENKPLEVKKLLTLARRIARRAEDAEALALVEKVEAELKKSSSS
B6: il2ra_site2_2erj_sap_23_mot_HHH_b1_07741_000000192_0001_1_20_H_._HHH_b2_04348_0001_0000100001_0000001_0_0001 (protein)
chain: SSSSDTEEEVEKVLEEAREAYEEGDLRRVYELAVEALRIASENNDDEALRLVREFFEEIASSSSS
B7: il2ra_site1_1z92_sap_25_mot_HHH_b2_05734_000000004_0001_1_18_H_._ems_3hM_3395_0001_0000100008_0000001_0_0001_af2pred_dldesign_0_af2pred (protein)
chain: AEEIEKLIIDALKRAGGDAEKAIEILKEEYEKTKDPLYRDAYIILKKLVKHKSNELDHAIEQALE
B8: il2ra_site1_2b5i_normal_mot_2cbe48e66a1f39b3fed734b245ab0a04_0001_000000015_0001_17_31_H_._HHH_b2_02007_0001_0000200015_0000001_0_af2pred_dldesign_0_af2pred (protein)
chain: SSSSSDPEALRAEIERLIEEAKTLKDPIEQERVLSRALFLARKIGDAEWIARVEAVYNELSSSSS
B9: il2ra_site1_3nfp_normal_mot_ems_3hM_3354_af2_000000165_0001_44_63_H_._HHH_b1_00853_af2_0001_0000400027_0000001_0 (protein)
chain: SSSSDRADKFLEQLAREAFENNDRLQLRALARIVEEALRAFGDPTAEELLELIRELLEELSSSSS
B10: il2ra_site2_3nfp_normal_mot_HHH_b1_01086_000000225_0001_20_36_H_._HHH_b2_03611_0001_0000300035_0000001_0 (protein)
chain: SSSSSEAEEELERLLRELEELLKRDPEEAHRLSARALNLAYEARDFEIFARLADISFALASSSSS
B11: il2ra_site1_1z92_normal_mot_HHH_b1_02849_000000017_0001_22_39_H_._HHH_b2_00342_af2_0001_0000200038_0000001_0 (protein)
chain: SSSSSSLEEAVEILLQAARRAEEAGDPERAEEFLRFAFEYAKDLGSPLLEEVEELLREIDSSSSS
B12: il2ra_site2_2erj_sap_18_mot_af86707857d369f3e1d85dcabc5f9321_0001_000000201_0001_14_29_H_._HHH_b2_07982_0001_0000700014_0000001_0_0001 (protein)
chain: SSSSSDELHRAYELAALLLHLVARNDREEFEEIAEEFREIVERLNSDNAREFLEQMEKQLSSSSS
B13: il2ra_site2_2erj_sap_21_mot_6ec3e94b46d95805cdcdc10c0c108f03_0001_af2_000000040_0001_36_50_H_._HHH_b2_04396_0001_0000200006_0000001_0_0001 (protein)
chain: SSSSSEWEEAARLSVLLLEAARKNDEELLEELRREAEELIKEIKNPAARRYLEFALRDVERSSSS
B14: il2ra_site2_3nfp_normal_mot_HHH_b2_04451_000000238_0001_21_37_H_._HHH_b2_06282_af2_0001_0000700018_0000001_0 (protein)
chain: SSSSDEEERLEQLLEEAERLIEEGDRYEALEVVAEATELALRLNDEEVDRILLELFELIQSSSSS
B15: il2ra_site1_3nfp_normal_mot_HHH_b1_06850_000000137_0001_20_36_H_._HEEHE_2134_0001_0000200026_0000001_0 (protein)
chain: SDEYLSEAIEKDLEERANVDHVEVEVSNQHIHVTVEGTDEAAQEAEEIAERLAKTANIPLTFTTL
B16: il2ra_site2_2erj_normal_mot_HHH_b2_03913_af2_000000182_0001_1_19_H_._HHH_b2_00910_af2_0001_0000200004_0000001_0 (protein)
chain: SSSSQEAAELFAEAWREAAKLFRNGNPEEAERVLEEYAELVRELGDERALEAIERALKFLTSSSS
B17: il2ra_site1_2b5i_normal_mot_HHH_b2_07442_af2_000000069_0001_1_16_H_._HHH_b2_08090_af2_0002_0000200011_0000001_1_af2pred_0001_af2pred_1 (protein)
chain: SSSSSDDDHRVQELYREASELYRNGNPEEARKVLEEALEIAEEGGDPRLREDVERFIEMASSSSS
B18: il2ra_site1_2b5i_sap_22_mot_HHH_b1_01934_af2_000000023_0001_42_56_H_._98c847d54cb06549f1b43bebfb1599e3_0001_af2_0001_0000100001_0000001_0_0001_af2pred_dldesign_ … (protein)
chain: SSSSSLFDRVEELYKKALELYKKGKKEEAKELLEEALRLAREAKDEKIAADLEYLIEYLKSSSSS
B19: il2ra_site2_3nfp_sap_29_mot_HHH_b1_06797_000000164_0001_24_40_H_._HHH_b1_04575_0001_0000200009_0000001_0_0001 (protein)
chain: TRELSNRIFELARRGDPVAWLLYALLADVATEGDPELQRLLEEALEALERGNPEEAKEIVEEALR
B20: il2ra_site1_3nfp_sap_10_mot_119b7766384adbe86006a62bce89dba1_0001_af2_000000092_0001_18_32_H_._HHH_b2_00752_0001_0000100003_0000001_1_0001 (protein)
chain: SSSSNQALEWLEEAAEKAFEEGNRHDIRAILRLLEEALKKFGNPEAKEVVRIIEELLEELSSSSS
B21: il2ra_site2_2erj_sap_20_mot_HHH_b1_01338_000000092_0001_1_18_H_._HHH_b1_00894_0001_0000800019_0000001_0_0001 (protein)
chain: SSSSDERIRLAMQLVDELAQEFNLDAEQLHALWELAKELLERGVSEEELREELERLVEELNSSSS
B22: il2ra_site2_2erj_sap_22_mot_c2bf78bdce995293a161f7082e24b401_0001_af2_000000082_0001_17_32_H_._HHH_b2_05133_0001_0000600016_0000001_0_0001 (protein)
chain: SSSSDEELHEIFELLSLLLEAIQKGDDELFKKLVEEVRQLIEEKGSPNLREILEWLERHFHSSSS
B23: il2ra_site2_3nfp_sap_14_mot_HHH_b2_00746_000000285_0001_20_36_H_._HHH_b1_07255_af2_0001_0000100001_0000001_0_0001 (protein)
chain: SSSSKQEEYLRAALELAKEALEAGDPEVARRHAEIALLAAEDARDPELFEEIEELLEEIRGSSSS
B24: il2ra_site1_3nfp_normal_mot_HHH_b1_03753_af2_000000088_0001_41_54_H_._HHH_b1_07972_af2_0001_0000200013_0000001_0_af2pred_0001_af2pred_swapped (protein)
chain: SSSSSERERVRRILERAMEAAFNGNPEEAKELLKEAEELARELGNERLLKKIEYDLRVIEGSSSS

Molecular target: il2ra, P01589
Assay: yeast display titration

Apparent Kd, inactive:
B1 no binding seen
B2 no binding seen
B3 no binding seen
B4 no binding seen
B5 no binding seen
B6 no binding seen
B7 no binding seen
B8 no binding seen
B9 no binding seen
B10 no binding seen
B11 no binding seen
B12 no binding seen
B13 no binding seen
B14 no binding seen
B15 no binding seen
B16 no binding seen
B17 no binding seen
B18 no binding seen
B19 no binding seen
B20 no binding seen
B21 no binding seen
B22 no binding seen
B23 no binding seen
B24 no binding seen

No new results follow: an excerpt of the list.
Apparent Kd, inactive:
B3 no binding seen
B4 no binding seen
B5 no binding seen
B6 no binding seen
B7 no binding seen
B8 no binding seen
B9 no binding seen
